According to PMC4629154:
Results are given in words; binding and its absence hold for the method and conditions named. Binding seen in cells or lysates may run through a third protein. A result given as binding can be weak or reduced; the word gives no strength.

Protein sequences, listed by entry. Tags and fused reporters are not part of them. Lines headed by an entry give the natural chain unless they say otherwise; changes in a name come on top.
UniProt P63158: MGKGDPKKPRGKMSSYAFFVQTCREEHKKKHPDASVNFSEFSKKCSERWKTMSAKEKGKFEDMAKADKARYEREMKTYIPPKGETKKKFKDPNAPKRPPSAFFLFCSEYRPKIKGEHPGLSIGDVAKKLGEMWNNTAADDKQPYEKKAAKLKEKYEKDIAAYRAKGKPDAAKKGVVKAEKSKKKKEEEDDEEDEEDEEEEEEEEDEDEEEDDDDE
UniProt O14980: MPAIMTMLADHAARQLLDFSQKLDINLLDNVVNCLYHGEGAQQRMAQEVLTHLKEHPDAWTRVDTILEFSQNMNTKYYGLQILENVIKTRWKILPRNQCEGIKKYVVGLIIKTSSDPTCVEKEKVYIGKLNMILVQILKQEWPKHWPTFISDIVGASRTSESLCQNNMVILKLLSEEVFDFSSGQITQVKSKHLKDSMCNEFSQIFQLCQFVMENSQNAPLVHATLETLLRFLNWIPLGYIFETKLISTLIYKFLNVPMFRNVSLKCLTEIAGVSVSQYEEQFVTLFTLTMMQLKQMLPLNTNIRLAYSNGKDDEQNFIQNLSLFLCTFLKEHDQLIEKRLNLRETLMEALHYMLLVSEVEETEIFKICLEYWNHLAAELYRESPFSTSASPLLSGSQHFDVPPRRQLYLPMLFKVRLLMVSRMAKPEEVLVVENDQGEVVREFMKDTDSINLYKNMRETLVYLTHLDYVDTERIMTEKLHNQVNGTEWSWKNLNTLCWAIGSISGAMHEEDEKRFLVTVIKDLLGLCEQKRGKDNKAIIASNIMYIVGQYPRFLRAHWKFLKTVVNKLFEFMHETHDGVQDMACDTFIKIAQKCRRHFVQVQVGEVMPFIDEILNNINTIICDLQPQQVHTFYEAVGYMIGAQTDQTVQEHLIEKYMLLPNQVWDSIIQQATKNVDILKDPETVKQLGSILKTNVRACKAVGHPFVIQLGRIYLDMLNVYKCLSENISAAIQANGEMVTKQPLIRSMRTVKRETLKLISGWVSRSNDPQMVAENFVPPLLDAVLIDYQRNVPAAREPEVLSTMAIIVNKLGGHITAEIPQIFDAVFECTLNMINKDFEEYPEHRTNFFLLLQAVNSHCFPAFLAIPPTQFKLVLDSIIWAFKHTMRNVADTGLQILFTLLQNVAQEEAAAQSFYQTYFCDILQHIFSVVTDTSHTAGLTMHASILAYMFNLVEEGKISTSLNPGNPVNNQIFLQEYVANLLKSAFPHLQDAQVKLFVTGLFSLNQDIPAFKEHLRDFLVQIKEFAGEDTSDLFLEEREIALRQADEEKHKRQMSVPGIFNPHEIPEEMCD

Target: Flag-HMGB1 K282930Q (hyper-acetylation mutant) (mouse) (UniProt P63158)
Experiment: co-IP; HEK293T cells co-transfected for 48 h; whole-cell lysates (PRO-PREP), pre-cleared; anti-Flag antibody (1 ug) overnight at 4 °C, protein G Sepharose 4 h; immunoblot; in some panels cells treated with LPS, TNF-α, Poly (I:C), IFN-γ, resveratrol or sirtinol, or co-transfected with HA-PCAF

In the case of “HA-tagged chromosome region maintenance 1 (CRM1) (from UniProt O14980 1-1071)”, the binding was “binds”.
